These results are taken from the supplement of paper PMC4604168 (melanoma cell lines).

The structures appear in SMILES notation. Some of the results follow. Single values are uncertain, as repeats are few or missing.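 The apoptosis fraction was the count of cleaved-PARP antibody-stained nuclei relative to all DNA-stained nuclei, imaged in 1,536-well plates. Screening doses were set so most cells survived, and baseline and induced cleaved-PARP levels vary greatly across cell lines.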

Test systems include WM115; WM1716; WM1745; WM3526; WM3619; WM451Lu.
Assay in all cases: cleaved PARP positive nuclei fraction relative to DMSO control; melanoma cells; higher = more apoptosis
What all share (conditions): library dose: low library concentration; 72 h

Consider `Cn1cncc1[C@@](N)(c1ccc(Cl)cc1)c1ccc2c(c1)c(-c1cccc(Cl)c1)cc(=O)n2C` [tipifarnib] + CC(C)CCN1c2nc(Nc3cc(F)c(O)c(F)c3)ncc2N(C)C(=O)C1C [BID1870] (first compound 0.01 µM, partner dose 0.2 µM), for which the “cleaved PARP positive nuclei fraction” value came out at 171% with WM115; 74.4% with WM1716; 108% in the assay on WM1745; 154% in the assay on WM3526; 96% with WM3619; 62.7% with WM451Lu.

For `C=CCNC1=C2C[C@@H](C)C[C@H](OC)[C@H](O)[C@@H](C)/C=C(\C)[C@H](OC(N)=O)[C@@H](OC)/C=C\C=C(/C)C(=O)NC(=CC1=O)C2=O` [Tanespimycin] + O=C(CCCCCCC(=O)Nc1ccccc1)NO [vorinostat] (first compound 0.002 µM, partner dose 0.08 µM), the “cleaved PARP positive nuclei fraction” value in the assay on WM115 worked out at 97.9%; in the assay with WM1716, 56.6%; in the assay on WM1745 it was 114%; in the assay on WM3526, 43.2%; with WM3619, 225%; in the assay on WM451Lu, 120%.

Turning to `CC(C)(C)c1cnc(CSc2cnc(NC(=O)C3CCNCC3)s2)o1` + O=C(Nc1cccc(Cl)c1)Nc1ncc(CCNc2ncnc3ccsc23)s1 [SNS314] (first compound 0.01 µM, partner dose 0.0008 µM), the “cleaved PARP positive nuclei fraction” value in the assay with WM115 turned out to be 101%; with WM1716, 87.2%; with WM1745, 124%; in the assay with WM3526, 132%; in the assay with WM3619 it was 93.3%; in the assay with WM451Lu, 124%.

Take `Cc1nc(Nc2ncc(C(=O)Nc3c(C)cccc3Cl)s2)cc(N2CCN(CCO)CC2)n1` [dasatanib] + CC1(C)NC(=O)N(c2ccc([N+](=O)[O-])c(C(F)(F)F)c2)C1=O [nilutamide] (first compound 0.004 µM, partner dose 1 µM): the “cleaved PARP positive nuclei fraction” value in the assay on WM115 came to 120%; with WM1716 it was 288%; in the assay with WM1745 it was 127%; in the assay with WM3526, 24.9%; with WM3619, 98.1%; with WM451Lu, 60%.

As to `Cn1c(Nc2ccc(C(F)(F)F)cc2)nc2cc(Oc3ccnc(-c4ncc(C(F)(F)F)[nH]4)c3)ccc21` + CC(C)(C)c1cnc(CSc2cnc(NC(=O)C3CCNCC3)s2)o1 [SNS-032] (first compound 0.08 µM, partner dose 0.01 µM), the “cleaved PARP positive nuclei fraction” value was 1540% in the assay on WM115; 188% in the assay with WM1716; 150% with WM1745; 253% with WM3526; 148% with WM3619; 63.9% in the assay on WM451Lu.

As to `Clc1ccc(Nc2nnc(Cc3ccncc3)c3ccccc23)cc1` [vatalanib] + COc1cc(N2CCC(N3CCN(C)CC3)CC2)ccc1Nc1ncc(Cl)c(Nc2ccccc2S(=O)(=O)C(C)C)n1 [NVP-TAE684] (first compound 2 µM, partner dose 0.08 µM), the “cleaved PARP positive nuclei fraction” value stood at 506% in the assay on WM115; 147% in the assay on WM1716; 122% with WM1745; 37.7% with WM3526; 1490% in the assay on WM3619; 112% in the assay with WM451Lu.

`CC(C)(C)c1cnc(CSc2cnc(NC(=O)C3CCNCC3)s2)o1` + COc1cc2c(Oc3ccc4[nH]c(C)cc4c3F)ncnc2cc1OCCCN1CCCC1 [cediranib] (first compound 0.01 µM, partner dose 0.4 µM): the “cleaved PARP positive nuclei fraction” value with WM115 was 155%; in the assay with WM1716, 131%; in the assay on WM1745, 101%; in the assay with WM3526, 56.9%; in the assay on WM3619, 94.9%; in the assay on WM451Lu it was 84.9%.

In the case of `Cc1cc(N2CCOCC2)cc2[nH]c(-c3c(NC[C@@H](O)c4cccc(Cl)c4)cc[nH]c3=O)nc12` + COc1ccc(-c2ccc3c(N4CCOCC4)nc(N4C[C@@H](C)O[C@@H](C)C4)nc3n2)cc1CO [KU0063794] (first compound 0.2 µM, partner dose 0.02 µM), the “cleaved PARP positive nuclei fraction” value amounted to 172% in the assay on WM115; 82.7% in the assay on WM1716; 146% with WM1745; 71.9% with WM3526; 96.8% with WM3619; 30.2% with WM451Lu.

As for `Cc1nc(Nc2ncc(C(=O)Nc3c(C)cccc3Cl)s2)cc(N2CCN(CCO)CC2)n1` [dasatanib] + C[C@@H]1CCN(C(=O)CC#N)C[C@@H]1N(C)c1ncnc2[nH]ccc12 [CP690550] (first compound 0.004 µM, partner dose 1 µM), the “cleaved PARP positive nuclei fraction” value is 84.8% in the assay on WM115; 232% in the assay on WM1716; 154% with WM1745; 60% with WM3526; 76.3% in the assay with WM3619; 393% in the assay with WM451Lu.

As for `COCC[n+]1c2c(n(Cc3cnccn3)c1C)C(=O)c1ccccc1C2=O` + COC(=O)c1sccc1S(=O)(=O)Nc1ccc(Nc2ccccc2)cc1OC [GSK0660] (first compound 0.0004 µM, partner dose 1 µM), the “cleaved PARP positive nuclei fraction” value worked out at 152% in the assay with WM115; 91.1% with WM1716; 101% in the assay on WM1745; 71.1% with WM3526; 85% with WM3619; 308% in the assay with WM451Lu.

Consider `CC(C)(C)c1cnc(CSc2cnc(NC(=O)C3CCNCC3)s2)o1` + CCN(CC)CCCCNc1ncc2cc(-c3cc(OC)cc(OC)c3)c(NC(=O)NC(C)(C)C)nc2n1 [PD173074] (first compound 0.01 µM, partner dose 0.1 µM), for which the “cleaved PARP positive nuclei fraction” value stood at 40.1% in the assay with WM115; 106% with WM1716; 98.8% in the assay with WM1745; 64.6% in the assay with WM3526; 80.6% in the assay with WM3619; 88.8% in the assay on WM451Lu.

Turning to `O=C(CCCCCCC(=O)Nc1ccccc1)NO` [vorinostat] + Cc1cc([N+](=O)[O-])ccc1NS(=O)(=O)c1cc(Cl)ccc1Cl [FH535] (first compound 0.08 µM, partner dose 1 µM), the “cleaved PARP positive nuclei fraction” value came out at 101% with WM115; 82% in the assay on WM1716; 99.9% with WM1745; 73% with WM3526; 94.5% in the assay on WM3619; 122% in the assay on WM451Lu.

As to `C[C@]1(c2nc3c(C(N)=O)cccc3[nH]2)CCCN1` [Veliparib] + C[C@@H]1CCN(C(=O)CC#N)C[C@@H]1N(C)c1ncnc2[nH]ccc12 [CP690550] (first compound 1.4 µM, partner dose 1 µM), the “cleaved PARP positive nuclei fraction” value in the assay with WM115 worked out at 315%; with WM1716 it was 159%; with WM1745 it was 125%; in the assay on WM3526, 55.3%; with WM3619, 110%; with WM451Lu, 29.3%.

In the case of `Cc1nc(Nc2ncc(C(=O)Nc3c(C)cccc3Cl)s2)cc(N2CCN(CCO)CC2)n1` [dasatanib] + Oc1cc(-c2nc(-c3ccccc3)[nH]c2-c2ccncc2)ccc1Cl [L779450] (first compound 0.004 µM, partner dose 0.2 µM), the “cleaved PARP positive nuclei fraction” value in the assay with WM115 turned out to be 161%; in the assay with WM1716 it was 157%; in the assay with WM1745, 146%; in the assay on WM3526, 91.4%; in the assay with WM3619 it was 81.1%; with WM451Lu it was 43.3%.

As to `CO[C@@H]1[C@H](N(C)C(=O)c2ccccc2)C[C@H]2O[C@]1(C)n1c3ccccc3c3c4c(c5c6ccccc6n2c5c31)C(=O)NC4` [Midostaurin] + COc1ccc2c(c1)CCC1C2CCC2(C)C(NCCCCCCN3C(=O)C=CC3=O)CCC12 [U73122] (first compound 0.08 µM, partner dose 0.4 µM), the “cleaved PARP positive nuclei fraction” value in the assay with WM115 came to 152%; in the assay on WM1716 it was 98.7%; in the assay on WM1745, 109%; in the assay with WM3526 it was 81.3%; in the assay with WM3619, 84.8%; in the assay on WM451Lu, 131%.

On to `O=C(Nc1cccc(Cl)c1)Nc1ncc(CCNc2ncnc3ccsc23)s1` + COc1cc2c(Oc3ccc4[nH]c(C)cc4c3F)ncnc2cc1OCCCN1CCCC1 [cediranib] (first compound 0.0008 µM, partner dose 0.4 µM), for which the “cleaved PARP positive nuclei fraction” value with WM115 is 80.5%; in the assay on WM1716, 77.7%; in the assay with WM1745 it was 86.7%; in the assay with WM3526, 63.6%; with WM3619 it was 84.2%; with WM451Lu it was 158%.

As for `C[C@@H]1CCN(C(=O)CC#N)C[C@@H]1N(C)c1ncnc2[nH]ccc12` + COc1ccc(-c2ccc3c(N4CCOCC4)nc(N4C[C@@H](C)O[C@@H](C)C4)nc3n2)cc1CO [KU0063794] (first compound 1 µM, partner dose 0.02 µM), the “cleaved PARP positive nuclei fraction” value in the assay on WM115 came out at 73.2%; in the assay on WM1716, 102%; in the assay with WM1745, 116%; in the assay on WM3526, 73.2%; with WM3619 it was 72%; with WM451Lu, 283%.

As to `C#Cc1cccc(Nc2ncnc3cc(OCCOC)c(OCCOC)cc23)c1` [erlotinib] + NCC(=O)Nc1ccc(-n2nc(C(F)(F)F)cc2-c2ccc3c(ccc4ccccc43)c2)cc1 [OSU03012] (first compound 0.8 µM, partner dose 1 µM), the “cleaved PARP positive nuclei fraction” value was 78.3% with WM115; 238% with WM1716; 120% with WM1745; 95.9% in the assay on WM3526; 79.5% in the assay on WM3619; 282% in the assay on WM451Lu.

As for `C[C@]1(c2nc3c(C(N)=O)cccc3[nH]2)CCCN1` [Veliparib] + Cn1nnc2c(C(N)=O)ncn2c1=O [temozolomide] (first compound 1.4 µM, partner dose 2 µM), the “cleaved PARP positive nuclei fraction” value in the assay on WM115 came out at 73.4%; in the assay on WM1716, 172%; in the assay with WM1745 it was 105%; in the assay on WM3526 it was 47.3%; in the assay on WM3619, 92.3%; in the assay with WM451Lu it was 238%.

Regarding `Nc1cccc2c1CN(C1CCC(=O)NC1=O)C2=O` (stereo not drawn) [lenalidomide] + COc1ccc(COc2ccc(Cc3cnc(N)nc3N)cc2OC)cc1 [GW2580] (first compound 1 µM, partner dose 1 µM), the “cleaved PARP positive nuclei fraction” value in the assay on WM115 is 67.4%; in the assay on WM1716, 160%; in the assay with WM1745, 108%; in the assay on WM3526, 85.9%; in the assay on WM3619, 78.6%; in the assay with WM451Lu, 269%.

In the case of `Nc1cccc2c1CN(C1CCC(=O)NC1=O)C2=O` (stereo not drawn) [lenalidomide] + Oc1cc(-c2nc(-c3ccccc3)[nH]c2-c2ccncc2)ccc1Cl [L779450] (first compound 1 µM, partner dose 0.2 µM), the “cleaved PARP positive nuclei fraction” value with WM115 stood at 80%; in the assay with WM1716, 79.9%; with WM1745, 115%; in the assay with WM3526, 165%; with WM3619, 97%; in the assay on WM451Lu it was 181%.

For `C=CCNC1=C2C[C@@H](C)C[C@H](OC)[C@H](O)[C@@H](C)/C=C(\C)[C@H](OC(N)=O)[C@@H](OC)/C=C\C=C(/C)C(=O)NC(=CC1=O)C2=O` [Tanespimycin] + Cc1cc([N+](=O)[O-])ccc1NS(=O)(=O)c1cc(Cl)ccc1Cl [FH535] (first compound 0.002 µM, partner dose 1 µM), the “cleaved PARP positive nuclei fraction” value in the assay with WM115 was determined as 140%; in the assay with WM1716 it was 115%; in the assay on WM1745, 121%; in the assay on WM3526, 215%; in the assay on WM3619, 91.4%; with WM451Lu, 176%.

With `CO[C@@H]1[C@H](N(C)C(=O)c2ccccc2)C[C@H]2O[C@]1(C)n1c3ccccc3c3c4c(c5c6ccccc6n2c5c31)C(=O)NC4` [Midostaurin] + CCN(CC)CCCCNc1ncc2cc(-c3cc(OC)cc(OC)c3)c(NC(=O)NC(C)(C)C)nc2n1 [PD173074] (first compound 0.08 µM, partner dose 0.1 µM), the “cleaved PARP positive nuclei fraction” value in the assay on WM115 was 70.3%; in the assay on WM1716, 94.2%; in the assay on WM1745, 98.7%; in the assay with WM3526 it was 79.3%; with WM3619 it was 68.3%; in the assay on WM451Lu, 74.7%.
